Laboratory results: PubChem BioAssay AID1159584 (Peter MacCallum Cancer Centre, 2016)
Here is one part, drawn at random, of about 18,000 reagents tested. The record does not give: the amount of reagent, the time to read-out.

Test: 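Knock-downs that harm CDH1-null cells more than parental MCF10A cells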 (primary screen)
Cell system: human MCF10A breast epithelial cells, parental and CDH1-null
Reagent: siRNA against human genes
Measured: 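Cell viability by CellTiter-Glo ATP luminescence, each line scaled to the mean of mock wells across plates, then CDH1-null over parental ratio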
Reading the numbers: CDH1-null / parental viability ratio: higher = CDH1-null cells survive relatively better than parental; CDH1-null viability vs mock: higher = more viable CDH1-null cells; parental viability vs mock: higher = more viable parental cells

The first 3 records as a preview:
no.	gene knocked down	CDH1-null / parental viability ratio	CDH1-null viability vs mock (fraction of mock)	parental viability vs mock (fraction of mock)
1	SIGLEC10	1.13	0.88	0.78
2	FAU	1.29	0.44	0.34
3	WDR12	0.76	0.5	0.66

The listing, from the first entry:
no.	gene knocked down	CDH1-null / parental viability ratio	CDH1-null viability vs mock (fraction of mock)	parental viability vs mock (fraction of mock)
1	SIGLEC10	1.13	0.88	0.78
2	FAU	1.29	0.44	0.34
3	WDR12	0.76	0.5	0.66
4	ABCC10	0.76	0.67	0.88
5	ATP5ME	0.81	0.61	0.75
6	MAD2L1	0.92	0.46	0.5
7	UTP15	1.02	0.57	0.56
8	NADK2	0.88	0.74	0.84
9	DBNL	0.73	0.69	0.95
10	PCSK4	1.05	0.86	0.82
11	MAP2K7	0.89	0.59	0.66
12	CKAP4	1	0.46	0.46
13	EXOSC4	0.85	0.66	0.78
14	CRYGN	0.87	0.66	0.76
15	NFATC4	1.15	0.94	0.82
16	PMM1	0.98	0.82	0.84
17	PGP	1.83	1.28	0.7
18	FBXO8	0.93	0.91	0.98
19	TRIM11	0.77	0.62	0.8
20	ENG	1.12	0.96	0.86
21	OSBP2	0.8	0.7	0.88
22	PRRC2C	1.05	0.65	0.62
23	HS3ST4	1.01	1.03	1.02
24	KLHL1	0.59	0.24	0.41
25	PRC1	0.91	0.63	0.69
26	TRIM29	1.13	0.52	0.46
27	NFYA	1	0.94	0.94
28	ITGA5	1.14	1.03	0.9
